Laboratory results as given in the supplement of paper PMC10727501.
Some of the results follow. Repeats in this data set agree poorly, so a single value says little.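 Researchers measured free-swimming zebrafish larvae's O-bend response probability to dark flashes (naive: first five; training: remaining flashes of four 60-flash blocks; test: later 60-flash block) and OMR turning toward alternating leftward/rightward LED motion. Six treated larvae were compared to sixty 0.1% DMSO controls, with |SSMD|≥2 marking a hit.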

System: Danio rerio larvae (5 dpf, TLF)
Test: Prob-Naive (SSMD vs DMSO vehicle); higher = higher than vehicle (e.g. higher dark-flash O-bend response probability, or better optomotor performance)
Conditions: 10 µM; pre-incubation: 30-90 min

Q: With O=C1NC(=O)C(=Cc2ccc(-c3ccc(F)cc3)o2)S1 (stereo in doubt) as the compound, how does the Prob-Naive read?
A: Its Prob-Naive is -0.76.

Q: With Cn1nnc2c(C(N)=O)ncn2c1=O [Temozolomide] as the compound, how does the Prob-Naive read?
A: Its Prob-Naive is 0.454.

Q: For Nc1nc(=O)c2c([nH]1)NC[C@H](CNc1ccc(C(=O)N[C@@H](CCC(=O)[O-])C(=O)[O-])cc1)N2C=O.[Ca+2] [Calcium levofolinate (Calcium Folinate)], which Prob-Naive is on record?
A: Its Prob-Naive is 0.421.

Q: With NC(=O)NO [Hydroxyurea] as the compound, how does the Prob-Naive read?
A: The Prob-Naive was 0.121.

Q: Which Prob-Naive does the source give for O=C1CCC(N2C(=O)c3ccccc3C2=O)C(=O)N1 (stereo not drawn) [Thalidomide] here?
A: Its Prob-Naive is -0.123.

Q: Which Prob-Naive does the source give for Nc1nc(=O)[nH]cc1F [Flucytosine] here?
A: Its Prob-Naive is -0.404.

Q: Which Prob-Naive does the source give for C[C@]12CCC(=O)C=C1[C@@H]1C[C@@H]1[C@H]1[C@@H]3[C@@H]4C[C@@H]4[C@]4(CCC(=O)O4)[C@@]3(C)CC[C@H]12 [Drospirenone] here?
A: Its Prob-Naive is -3.15.

Q: Which Prob-Naive does the source give for CC(C)(Oc1ccc(Cl)cc1)C(=O)O [Clofibric Acid] here?
A: Its Prob-Naive is -0.184.

Q: For CCc1c(O)cc(O)c(C(=O)c2ccc(OCCN3CCOCC3)c(OC)c2)c1CC(=O)N(CCOC)CCOC, which Prob-Naive is on record?
A: Its Prob-Naive is -0.335.

Q: With NNC(=O)c1ccncc1.Nc1ccc(C(=O)O)c(O)c1 [Pasiniazid] as the compound, how does the Prob-Naive read?
A: Its Prob-Naive is -0.35.

Q: For O=C1NC(=O)/C(=C/c2ccc3nccc(-c4ccncc4)c3c2)S1, which Prob-Naive is on record?
A: Its Prob-Naive is -0.102.

Q: With O=N[O-].[Na+] [Sodium Nitrite] as the compound, how does the Prob-Naive read?
A: Its Prob-Naive is 0.00556.

Q: Which Prob-Naive does the source give for CN(C)/N=N/c1[nH]cnc1C(N)=O [Dacarbazine] here?
A: The Prob-Naive was 0.214.
